This passage reports binding results from paper PMC9396407.

Chains of the proteins cited; added tags and fusions are not shown.
UniProt Q92616: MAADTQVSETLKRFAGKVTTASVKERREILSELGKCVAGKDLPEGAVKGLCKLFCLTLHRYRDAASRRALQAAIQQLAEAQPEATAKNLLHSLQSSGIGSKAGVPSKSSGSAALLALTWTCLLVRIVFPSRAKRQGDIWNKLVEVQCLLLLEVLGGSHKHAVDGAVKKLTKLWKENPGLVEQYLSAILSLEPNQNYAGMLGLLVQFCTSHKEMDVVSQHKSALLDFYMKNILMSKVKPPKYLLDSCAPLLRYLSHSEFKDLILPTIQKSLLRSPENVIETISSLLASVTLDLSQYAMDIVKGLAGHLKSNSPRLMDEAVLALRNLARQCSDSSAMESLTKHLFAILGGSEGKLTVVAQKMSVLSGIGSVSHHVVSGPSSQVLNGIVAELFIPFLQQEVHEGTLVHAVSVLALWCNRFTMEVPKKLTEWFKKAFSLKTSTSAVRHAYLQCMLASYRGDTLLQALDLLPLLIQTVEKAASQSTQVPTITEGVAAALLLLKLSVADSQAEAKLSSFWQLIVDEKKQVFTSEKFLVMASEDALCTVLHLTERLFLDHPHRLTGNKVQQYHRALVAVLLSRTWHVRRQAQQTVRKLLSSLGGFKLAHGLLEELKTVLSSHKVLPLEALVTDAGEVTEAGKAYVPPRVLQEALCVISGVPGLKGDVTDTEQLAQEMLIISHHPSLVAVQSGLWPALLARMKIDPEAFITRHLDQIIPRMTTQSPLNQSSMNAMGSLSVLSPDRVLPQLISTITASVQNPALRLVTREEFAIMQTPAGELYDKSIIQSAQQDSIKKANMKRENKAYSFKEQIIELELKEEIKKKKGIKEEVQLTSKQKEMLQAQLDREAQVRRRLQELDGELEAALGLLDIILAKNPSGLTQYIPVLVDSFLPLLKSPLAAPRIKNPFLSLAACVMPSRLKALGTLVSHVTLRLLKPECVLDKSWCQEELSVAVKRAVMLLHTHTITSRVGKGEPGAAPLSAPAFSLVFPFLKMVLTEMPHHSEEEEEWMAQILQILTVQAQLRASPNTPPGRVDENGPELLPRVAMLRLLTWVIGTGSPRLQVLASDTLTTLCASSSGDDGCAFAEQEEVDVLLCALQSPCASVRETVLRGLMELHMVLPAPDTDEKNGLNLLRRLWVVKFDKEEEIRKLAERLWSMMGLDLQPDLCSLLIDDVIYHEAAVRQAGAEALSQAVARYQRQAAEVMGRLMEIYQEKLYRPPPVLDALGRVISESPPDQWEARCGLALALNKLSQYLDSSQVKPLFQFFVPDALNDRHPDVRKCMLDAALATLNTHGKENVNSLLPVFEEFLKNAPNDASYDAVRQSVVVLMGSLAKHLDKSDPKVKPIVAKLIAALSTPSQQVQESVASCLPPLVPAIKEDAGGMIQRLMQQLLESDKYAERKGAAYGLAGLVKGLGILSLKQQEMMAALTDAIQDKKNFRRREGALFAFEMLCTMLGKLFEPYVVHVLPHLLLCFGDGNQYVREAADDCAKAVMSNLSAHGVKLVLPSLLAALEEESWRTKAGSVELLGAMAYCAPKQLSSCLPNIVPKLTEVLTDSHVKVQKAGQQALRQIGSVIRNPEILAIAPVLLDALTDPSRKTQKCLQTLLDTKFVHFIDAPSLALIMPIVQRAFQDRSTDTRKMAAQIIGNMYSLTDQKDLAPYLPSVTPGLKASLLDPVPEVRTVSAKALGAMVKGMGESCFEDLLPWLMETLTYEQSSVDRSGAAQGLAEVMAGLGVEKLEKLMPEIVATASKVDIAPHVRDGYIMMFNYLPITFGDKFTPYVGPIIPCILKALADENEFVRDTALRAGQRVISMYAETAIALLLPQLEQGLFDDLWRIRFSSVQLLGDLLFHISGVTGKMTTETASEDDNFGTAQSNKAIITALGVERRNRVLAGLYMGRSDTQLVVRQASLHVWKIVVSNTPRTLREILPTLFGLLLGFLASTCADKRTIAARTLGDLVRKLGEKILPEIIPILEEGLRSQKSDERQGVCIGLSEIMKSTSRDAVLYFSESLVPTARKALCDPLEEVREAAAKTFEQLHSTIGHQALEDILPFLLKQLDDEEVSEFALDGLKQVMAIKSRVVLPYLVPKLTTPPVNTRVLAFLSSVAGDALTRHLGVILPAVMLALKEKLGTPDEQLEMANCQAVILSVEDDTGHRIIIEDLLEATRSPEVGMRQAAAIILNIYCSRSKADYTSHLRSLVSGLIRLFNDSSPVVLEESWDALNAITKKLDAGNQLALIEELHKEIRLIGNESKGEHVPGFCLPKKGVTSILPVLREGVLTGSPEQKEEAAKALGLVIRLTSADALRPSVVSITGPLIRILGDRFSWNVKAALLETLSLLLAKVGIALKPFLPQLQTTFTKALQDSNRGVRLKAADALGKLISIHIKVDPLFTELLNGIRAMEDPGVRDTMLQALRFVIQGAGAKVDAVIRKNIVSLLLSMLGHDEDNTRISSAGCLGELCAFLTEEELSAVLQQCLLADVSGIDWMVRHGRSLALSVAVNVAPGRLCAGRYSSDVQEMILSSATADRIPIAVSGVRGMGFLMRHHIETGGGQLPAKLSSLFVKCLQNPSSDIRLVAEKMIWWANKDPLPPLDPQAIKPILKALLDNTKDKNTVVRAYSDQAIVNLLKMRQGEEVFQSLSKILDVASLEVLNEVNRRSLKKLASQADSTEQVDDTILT
UniProt Q04637: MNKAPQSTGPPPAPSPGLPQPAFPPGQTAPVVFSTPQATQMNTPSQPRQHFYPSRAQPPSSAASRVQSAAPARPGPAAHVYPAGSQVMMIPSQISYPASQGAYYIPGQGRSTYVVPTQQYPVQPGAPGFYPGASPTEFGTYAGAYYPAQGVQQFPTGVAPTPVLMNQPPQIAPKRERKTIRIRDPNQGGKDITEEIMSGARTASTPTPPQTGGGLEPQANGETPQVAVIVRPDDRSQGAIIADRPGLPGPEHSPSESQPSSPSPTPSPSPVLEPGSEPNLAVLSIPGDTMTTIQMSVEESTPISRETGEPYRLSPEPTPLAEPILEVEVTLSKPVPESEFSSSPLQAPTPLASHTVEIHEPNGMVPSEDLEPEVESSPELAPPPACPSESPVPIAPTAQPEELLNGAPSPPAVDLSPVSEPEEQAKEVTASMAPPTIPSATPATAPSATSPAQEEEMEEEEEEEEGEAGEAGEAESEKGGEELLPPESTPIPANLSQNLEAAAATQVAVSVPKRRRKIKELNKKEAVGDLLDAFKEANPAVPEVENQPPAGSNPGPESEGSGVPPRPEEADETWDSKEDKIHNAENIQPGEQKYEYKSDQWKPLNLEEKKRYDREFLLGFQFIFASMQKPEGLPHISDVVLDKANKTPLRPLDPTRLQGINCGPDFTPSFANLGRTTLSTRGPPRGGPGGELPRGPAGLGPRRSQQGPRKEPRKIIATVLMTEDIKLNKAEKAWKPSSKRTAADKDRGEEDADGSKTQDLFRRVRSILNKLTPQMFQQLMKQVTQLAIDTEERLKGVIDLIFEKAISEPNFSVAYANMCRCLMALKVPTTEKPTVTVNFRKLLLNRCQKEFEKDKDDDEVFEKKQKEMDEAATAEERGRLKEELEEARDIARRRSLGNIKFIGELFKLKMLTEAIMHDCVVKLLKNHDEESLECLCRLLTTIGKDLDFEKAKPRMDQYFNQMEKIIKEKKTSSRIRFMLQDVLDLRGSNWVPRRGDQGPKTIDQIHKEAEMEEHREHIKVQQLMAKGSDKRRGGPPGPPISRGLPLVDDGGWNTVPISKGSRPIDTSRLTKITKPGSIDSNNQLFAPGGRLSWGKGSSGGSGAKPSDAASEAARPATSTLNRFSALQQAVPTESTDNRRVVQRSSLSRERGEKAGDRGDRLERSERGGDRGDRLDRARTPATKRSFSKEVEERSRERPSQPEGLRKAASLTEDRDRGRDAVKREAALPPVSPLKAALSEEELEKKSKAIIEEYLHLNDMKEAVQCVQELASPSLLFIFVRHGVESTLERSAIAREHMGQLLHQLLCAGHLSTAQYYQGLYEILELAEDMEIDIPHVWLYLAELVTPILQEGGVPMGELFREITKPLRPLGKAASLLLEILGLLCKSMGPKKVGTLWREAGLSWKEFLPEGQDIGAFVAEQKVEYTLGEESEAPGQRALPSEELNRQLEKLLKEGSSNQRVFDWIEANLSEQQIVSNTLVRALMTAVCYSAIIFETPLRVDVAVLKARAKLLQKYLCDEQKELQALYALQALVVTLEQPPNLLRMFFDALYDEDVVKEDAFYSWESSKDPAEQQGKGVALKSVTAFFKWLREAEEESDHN

The target in assay [1] is 3xFlag-tagged GCN1 (endogenously tagged, knock-in HEK293T cells) (human (endogenous in HEK293T)) (UniProt Q92616). Kind of assay: affinity purification with mass spectrometry; anti-Flag immunoprecipitates from HEK293T cells endogenously expressing 3xFlag-GCN1, steady state, n = 1; negative control was HEK293T cells not expressing 3xFlag-GCN1; SAINT score >=0.9.
Assay [2] shares this target. Described as above. This is another data set of the same source.

Where two headings read alike, the source gives them in different places. These are yes or no findings as the source states them, for the method shown. In cells and extracts the contact can be indirect. A yes stands for co-enrichment or nearness to the bait. Other partners may have been found.

With EIF4G1 (from UniProt Q04637 1-1599), in assay [1], the binding entry is “binds”.

B1: GYGYF2 (protein, UniProt Q6Y7W6 1-1299)
chain: MAAETQTLNFGPEWLRALSSGGSITSPPLSPALPKYKLADYRYGREEMLALFLKDNKIPSDLLDKEFLPILQEEPLPPLALVPFTEEEQRNFSMSVNSAAVLRLTGRGGGGTVVGAPRGRSSSRGRGRGRGECGFYQRSFDEVEGVFGRGGGREMHRSQSWEERGDRRFEKPGRKDVGRPNFEEGGPTSVGRKHEFIRSESENWRIFREEQNGEDEDGGWRLAGSRRDGERWRPHSPDGPRSAGWREHMERRRRFEFDFRDRDDERGYRRVRSGSGSIDDDRDSLPEWCLEDAEEEMGTFDSSGAFLSLKKVQKEPIPEEQEMDFRPVDEGEECSDSEGSHNEEAKEPDKTNKKEGEKTDRVGVEASEETPQTSSSSARPGTPSDHQSQEASQFERKDEPKTEQTEKAEEETRMENSLPAKVPSRGDEMVADVQQPLSQIPSDTASPLLILPPPVPNPSPTLRPVETPVVGAPGMGSVSTEPDDEEGLKHLEQQAEKMVAYLQDSALDDERLASKLQEHRAKGVSIPLMHEAMQKWYYKDPQGEIQGPFNNQEMAEWFQAGYFTMSLLVKRACDESFQPLGDIMKMWGRVPFSPGPAPPPHMGELDQERLTRQQELTALYQMQHLQYQQFLIQQQYAQVLAQQQKAALSSQQQQQLALLLQQFQTLKMRISDQNIIPSVTRSVSVPDTGSIWELQPTASQPTVWEGGSVWDLPLDTTTPGPALEQLQQLEKAKAAKLEQERREAEMRAKREEEERKRQEELRRQQEEILRRQQEEERKRREEEELARRKQEEALRRQREQEIALRRQREEEERQQQEEALRRLEERRREEEERRKQEELLRKQEEEAAKWAREEEEAQRRLEENRLRMEEEAARLRHEEEERKRKELEVQRQKELMRQRQQQQEALRRLQQQQQQQQLAQMKLPSSSTWGQQSNTTACQSQATLSLAEIQKLEEERERQLREEQRRQQRELMKALQQQQQQQQQKLSGWGNVSKPSGTTKSLLEIQQEEARQMQKQQQQQQQHQQPNRARNNTHSNLHTSIGNSVWGSINTGPPNQWASDLVSSIWSNADTKNSNMGFWDDAVKEVGPRNSTNKNKNNASLSKSVGVSNRQNKKVEEEEKLLKLFQGVNKAQDGFTQWCEQMLHALNTANNLDVPTFVSFLKEVESPYEVHDYIRAYLGDTSEAKEFAKQFLERRAKQKANQQRQQQQLPQQQQQQPPQQPPQQPQQQDSVWGMNHSTLHSVFQTNQSNNQQSNFEAVQSGKKKKKQKMVRADPSLLGFSVNASSERLNMGEIETLDDY
In the case of B1, the binding entry in assay [2] is listed as “binds”.
